According to article doi:10.1101/292912 (bioRxiv, 2018):
No constants are given. Whether binding was seen depends on the method and setting.

Target: Δ28-269 SaMGT (truncated monoglycosyltransferase from S. aureus with its transmembrane domain) (S. aureus) (UniProt Q99T05)
Assay: crystal structure

B1: Δ28-269 SaMGT (truncated monoglycosyltransferase from S. aureus with its transmembrane domain) (domain or fragment, UniProt Q99T05 28-269)
chain: QPVGKPPKKKKSKRILLKILLTILIIIALFIGIMYFLSTRDNVDELRKIENKSSFVSADNMPEYVKGAFISMEDERFYNHHGFDLKGTTRALFSTISDRDVQGGSTITQQVVKNYFYDNDRSFTRKVKELFVAHRVEKQYNKNEILSFYLNNIYFGDNQYTLEGAANHYFGTTVNKNSTTMSHITVLQSAILASKVNAPSVYNINNMSENFTQRVSTNLEKMKQQNYINETQYQQAMSQLNR
- binding: no binding
